Measured values: paper PMC7613278
Results are given in words; binding and its absence hold for the method and conditions named. Binding seen in cells or lysates may run through a third protein. Some entries that bind do so weakly or less than the wild type.

By UniProt entry, the sequences of proteins in these tests, tags left out. Where a name states a change or a piece, a line headed by the entry shows the natural chain unless it says otherwise.
UniProt Q8WUY9: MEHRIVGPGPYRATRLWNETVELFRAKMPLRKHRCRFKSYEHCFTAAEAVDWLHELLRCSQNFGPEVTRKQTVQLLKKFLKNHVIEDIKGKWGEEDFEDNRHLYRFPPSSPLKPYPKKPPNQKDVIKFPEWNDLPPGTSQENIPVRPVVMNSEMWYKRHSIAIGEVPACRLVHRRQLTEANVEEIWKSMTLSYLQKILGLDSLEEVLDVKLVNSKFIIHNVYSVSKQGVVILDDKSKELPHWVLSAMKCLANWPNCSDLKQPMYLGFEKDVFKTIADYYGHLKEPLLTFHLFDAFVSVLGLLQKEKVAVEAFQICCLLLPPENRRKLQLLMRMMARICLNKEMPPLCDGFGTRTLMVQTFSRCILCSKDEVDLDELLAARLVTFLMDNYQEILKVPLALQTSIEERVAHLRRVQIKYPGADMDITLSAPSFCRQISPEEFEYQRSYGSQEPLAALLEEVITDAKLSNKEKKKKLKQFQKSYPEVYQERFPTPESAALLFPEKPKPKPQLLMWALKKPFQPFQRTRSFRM
UniProt E9QAN8: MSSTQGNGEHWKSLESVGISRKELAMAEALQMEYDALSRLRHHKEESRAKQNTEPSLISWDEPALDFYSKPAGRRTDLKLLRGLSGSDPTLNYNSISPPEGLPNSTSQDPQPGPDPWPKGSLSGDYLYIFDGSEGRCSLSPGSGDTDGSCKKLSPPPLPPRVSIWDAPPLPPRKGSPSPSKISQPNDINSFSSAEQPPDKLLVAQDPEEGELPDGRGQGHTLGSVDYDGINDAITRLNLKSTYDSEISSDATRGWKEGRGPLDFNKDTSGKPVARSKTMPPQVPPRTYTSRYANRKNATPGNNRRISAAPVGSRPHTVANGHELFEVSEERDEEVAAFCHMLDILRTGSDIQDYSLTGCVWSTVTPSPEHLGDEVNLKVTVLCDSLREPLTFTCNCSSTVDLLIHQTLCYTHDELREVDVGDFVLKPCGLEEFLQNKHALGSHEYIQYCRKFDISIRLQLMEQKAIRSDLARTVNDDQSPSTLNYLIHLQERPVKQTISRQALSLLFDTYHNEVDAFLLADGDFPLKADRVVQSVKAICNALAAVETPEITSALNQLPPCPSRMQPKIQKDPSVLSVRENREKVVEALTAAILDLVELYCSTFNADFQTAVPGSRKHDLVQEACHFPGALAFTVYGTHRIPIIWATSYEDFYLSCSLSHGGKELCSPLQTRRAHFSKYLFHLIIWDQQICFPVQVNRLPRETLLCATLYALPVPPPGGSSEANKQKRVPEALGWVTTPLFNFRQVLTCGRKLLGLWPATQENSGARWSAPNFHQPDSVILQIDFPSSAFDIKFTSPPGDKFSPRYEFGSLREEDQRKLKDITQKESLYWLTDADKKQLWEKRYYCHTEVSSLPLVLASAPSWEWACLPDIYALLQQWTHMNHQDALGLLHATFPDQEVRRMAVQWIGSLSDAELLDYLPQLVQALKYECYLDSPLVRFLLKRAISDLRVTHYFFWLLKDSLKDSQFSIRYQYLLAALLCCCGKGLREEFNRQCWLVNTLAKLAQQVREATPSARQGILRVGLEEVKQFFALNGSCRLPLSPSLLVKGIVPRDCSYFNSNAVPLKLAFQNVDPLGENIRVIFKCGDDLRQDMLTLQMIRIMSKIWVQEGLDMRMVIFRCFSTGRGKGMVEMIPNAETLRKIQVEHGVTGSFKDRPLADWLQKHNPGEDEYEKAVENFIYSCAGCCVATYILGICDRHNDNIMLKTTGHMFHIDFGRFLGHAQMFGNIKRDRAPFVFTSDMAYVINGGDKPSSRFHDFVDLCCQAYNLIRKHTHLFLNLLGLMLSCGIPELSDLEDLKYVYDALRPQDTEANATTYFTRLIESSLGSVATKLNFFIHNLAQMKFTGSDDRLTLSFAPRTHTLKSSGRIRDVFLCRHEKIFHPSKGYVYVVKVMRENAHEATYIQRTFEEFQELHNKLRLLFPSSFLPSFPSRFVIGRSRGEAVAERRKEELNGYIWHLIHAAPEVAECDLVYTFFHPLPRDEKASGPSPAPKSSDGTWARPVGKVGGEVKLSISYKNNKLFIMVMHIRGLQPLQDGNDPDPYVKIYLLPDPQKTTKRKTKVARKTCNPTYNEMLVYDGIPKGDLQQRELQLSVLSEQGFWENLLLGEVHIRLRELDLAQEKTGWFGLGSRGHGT
UniProt O00750: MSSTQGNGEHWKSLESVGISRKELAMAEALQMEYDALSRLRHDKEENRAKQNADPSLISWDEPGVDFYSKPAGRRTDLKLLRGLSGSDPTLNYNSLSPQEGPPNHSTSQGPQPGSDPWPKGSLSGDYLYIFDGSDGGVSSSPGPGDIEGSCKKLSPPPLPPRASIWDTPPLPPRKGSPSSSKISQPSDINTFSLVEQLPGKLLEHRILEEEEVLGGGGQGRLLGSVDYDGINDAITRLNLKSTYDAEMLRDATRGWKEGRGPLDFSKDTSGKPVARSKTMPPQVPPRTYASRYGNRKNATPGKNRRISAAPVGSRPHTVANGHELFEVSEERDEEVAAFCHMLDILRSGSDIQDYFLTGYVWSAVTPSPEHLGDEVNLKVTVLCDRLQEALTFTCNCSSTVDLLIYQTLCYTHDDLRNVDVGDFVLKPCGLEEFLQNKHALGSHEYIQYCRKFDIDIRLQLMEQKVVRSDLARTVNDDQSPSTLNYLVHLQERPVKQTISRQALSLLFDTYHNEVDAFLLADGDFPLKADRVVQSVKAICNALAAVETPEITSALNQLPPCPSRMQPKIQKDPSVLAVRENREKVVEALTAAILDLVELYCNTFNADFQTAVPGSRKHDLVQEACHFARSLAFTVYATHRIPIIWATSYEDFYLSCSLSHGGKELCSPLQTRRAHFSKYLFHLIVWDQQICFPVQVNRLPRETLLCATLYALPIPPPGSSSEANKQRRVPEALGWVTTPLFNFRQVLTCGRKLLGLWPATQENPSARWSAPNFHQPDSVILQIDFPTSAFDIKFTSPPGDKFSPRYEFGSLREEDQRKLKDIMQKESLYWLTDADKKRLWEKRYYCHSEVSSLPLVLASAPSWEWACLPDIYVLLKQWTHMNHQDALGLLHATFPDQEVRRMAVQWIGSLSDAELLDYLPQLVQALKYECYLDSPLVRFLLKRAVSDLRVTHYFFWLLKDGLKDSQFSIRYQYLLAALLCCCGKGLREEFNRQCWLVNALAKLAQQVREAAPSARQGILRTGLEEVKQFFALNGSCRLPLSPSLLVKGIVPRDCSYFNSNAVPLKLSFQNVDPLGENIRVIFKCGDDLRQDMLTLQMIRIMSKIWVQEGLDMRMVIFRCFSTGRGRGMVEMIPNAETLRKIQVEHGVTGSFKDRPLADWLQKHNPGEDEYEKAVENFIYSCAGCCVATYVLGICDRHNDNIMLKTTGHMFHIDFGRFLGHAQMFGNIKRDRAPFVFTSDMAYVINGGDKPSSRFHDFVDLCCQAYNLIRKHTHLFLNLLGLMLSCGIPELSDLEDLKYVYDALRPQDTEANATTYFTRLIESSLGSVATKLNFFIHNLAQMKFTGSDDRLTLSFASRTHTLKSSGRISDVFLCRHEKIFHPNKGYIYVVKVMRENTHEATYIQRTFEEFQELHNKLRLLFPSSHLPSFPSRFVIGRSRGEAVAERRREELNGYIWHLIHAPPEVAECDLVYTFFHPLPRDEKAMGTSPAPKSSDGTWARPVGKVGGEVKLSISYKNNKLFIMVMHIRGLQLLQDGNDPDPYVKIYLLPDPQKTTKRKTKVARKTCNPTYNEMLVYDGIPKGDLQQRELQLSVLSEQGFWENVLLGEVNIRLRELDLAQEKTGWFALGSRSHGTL

Assays:
eGFP-DEPDC1B (human) = eGFP-DEPDC1B (human) (UniProt Q8WUY9); experiment: co-IP; HEK293T cells co-expressing eGFP-DEPDC1B and 6×myc-PI3K-C2β, 48 h after transfection; lysis buffer 20 mM HEPES pH 7.4, 100 mM KCl, 2 mM MgCl2, 1% Triton X-100; anti-c-Myc (control anti-Flag) or anti-DEPDC1B (control anti-mouse IgG) on magnetic protein A or G beads, 4°C overnight
[1] = target: 6×myc-mousePI3K-C2β (mouse) (UniProt E9QAN8); experiment: as above
[2] = target: endogenous eGFP-PI3K-C2β (genome-engineered HEK293T cells) (human (endogenous in HEK293T)) (UniProt O00750); experiment: co-IP; genome-engineered HEK293T cells with endogenous eGFP-PI3K-C2β; IP buffer 20 mM HEPES pH 7.4, 150 mM NaCl, 0.05% saponin; control or GFP-trap magnetic beads, 4 h at 4°C; cells untreated or treated for 2 h with vehicle or PKN inhibitors (1 μM PKC412 + 2 μM Cdk1/2 inhibitor III)

“6×myc-mousePI3K-C2β (from UniProt E9QAN8 1-1632) (enzyme)” was tested, and the binding (eGFP-DEPDC1B (human)) was “binds”.
For “eGFP-DEPDC1B (from UniProt Q8WUY9 1-529)”, the binding [1] was “binds”.
In the case of “endogenous DEPDC1B (from UniProt Q8WUY9 1-529)”, the binding [2] is reported as “binds”.
